Paper PMC7819943, “Rice protein-binding microarrays: a tool to detect cis-acting elements near promoter regions in rice”
The list shows a part of the results.

Protein sequences, listed by entry. Tags and fused reporters are not part of them.
UniProt Q0JBA9, entry or part of it: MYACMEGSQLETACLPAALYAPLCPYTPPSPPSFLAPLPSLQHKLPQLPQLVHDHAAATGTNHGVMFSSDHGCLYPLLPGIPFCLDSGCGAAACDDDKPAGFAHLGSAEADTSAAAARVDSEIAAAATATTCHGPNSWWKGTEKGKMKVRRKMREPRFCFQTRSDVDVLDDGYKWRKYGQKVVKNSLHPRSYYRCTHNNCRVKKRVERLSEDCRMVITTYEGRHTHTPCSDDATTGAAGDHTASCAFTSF

target: OsWRKY34 (Oryza sativa, UniProt Q0JBA9 1-250); experiment: protein-binding microarray (RPBM); PBS, 2% BSA, 51.3 ng/ul salmon testes DNA, 50 uM zinc acetate, 200 nM TF, 25 C, 1 h; high values mean tight binding; settings: protein: recombinant; tags: N-terminal polyhistidine and DsRed monomer fusion (pET32a); label: CyDye5-dUTP incorporated in the synthesized complementary strand; 3' TTTTT single-stranded linker to array surface; dsDNA, one strand shown
Method in brief: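 The binding signal is fluorescence intensity per feature, in arbitrary units, read on an Axon 4000B scanner. Polyhistidine- and DsRed-tagged transcription factors (N-terminal fusions) from E. coli BL21-CodonPlus were purified on Ni–NTA and applied at 200 nM for 1 h at 25 °C to a double-stranded, BSA-blocked custom Agilent array in buffer with 50 µM zinc acetate.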

Question: “CTGTCGCCATCTCGCGCCACTTCCGCTCCAGTTCCCGCCACGGAGTCACCTAGTGCAG” was tested. Which binding signal did it give?
Answer: 10500 fluorescence intensity (a.u.)

Question: With “ACTATTTACCATTCTGCCACTAGCCGAGGTCTCCTCCTCCCGGAGTCACCTAGTGCAG” as the sequence, how does the binding signal read?
Answer: 8230 fluorescence intensity (a.u.)

Question: “TGCTCCGTCCGCCGCCGCTCTGCCCCGCCTGTCACCCACTCGGAGTCACCTAGTGCAG” was tested. Which binding signal did it give?
Answer: 10600 fluorescence intensity (a.u.)

Question: “CTGTTTAATTAGTGTCAGCTCCCACGTCTGTTCCGTGCTGCGGAGTCACCTAGTGCAG” was tested. Which binding signal did it give?
Answer: 9270 fluorescence intensity (a.u.)

Question: Which binding signal does the source give for “GGTTCGTCAACAAGGTCAGGGGCGGCGGCCGGGGCGGAGCCGGAGTCACCTAGTGCAG” here?
Answer: 9930 fluorescence intensity (a.u.)

Question: With “TGATAATCCGTGTCCAACGTTTGATCGTCCGTCTTATTTACGGAGTCACCTAGTGCAG” as the sequence, how does the binding signal read?
Answer: 8920 fluorescence intensity (a.u.)

Question: For “GTATTATTGCAGTTGCCTGTGCCTTCATTTCCACCCACTTCGGAGTCACCTAGTGCAG”, which binding signal is on record?
Answer: 12400 fluorescence intensity (a.u.)

Question: How did the binding signal turn out when “TCCGGCAGCCACCAAGTCCATCGATCGATATCTCACCACACGGAGTCACCTAGTGCAG” was run?
Answer: 10200 fluorescence intensity (a.u.)

Question: Which binding signal does the source give for “TCAAGGGAGGAGGGGTTGGCGGTGATGGAGGAGACGACGACGGAGTCACCTAGTGCAG” here?
Answer: 11700 fluorescence intensity (a.u.)

Question: How did the binding signal turn out when “ATTGTTTTTTCTTTTATCTTTCTTCATGCGTTAATTATTACGGAGTCACCTAGTGCAG” was run?
Answer: 8610 fluorescence intensity (a.u.)

Question: “CCTTTCTTAGCCACACACCCAGATTCCCCACACCTCTCCCCGGAGTCACCTAGTGCAG” was tested. Which binding signal did it give?
Answer: 10300 fluorescence intensity (a.u.)

Question: How did the binding signal turn out when “GGATATCTTCGAAGACGCCCAGTTGCACACCACCTCCAGACGGAGTCACCTAGTGCAG” was run?
Answer: 8170 fluorescence intensity (a.u.)

Question: With “GCTCGAGTCCAAGTGTCCAACCCCATCGCATCGCCATCTCCGGAGTCACCTAGTGCAG” as the sequence, how does the binding signal read?
Answer: 8540 fluorescence intensity (a.u.)

Question: For “GCCAAATTCCAGCCCTGCAGCAAGCTCACGCCAACTTGCCCGGAGTCACCTAGTGCAG”, which binding signal is on record?
Answer: 10900 fluorescence intensity (a.u.)

Question: For “TTCTACGTATCTTTTCAATCTTCTCTTTTCAACTCAACCACGGAGTCACCTAGTGCAG”, which binding signal is on record?
Answer: 10100 fluorescence intensity (a.u.)

Question: How did the binding signal turn out when “TTGTTTCTATGCTCATAAGAGGCCAAAGCTTTCTTTCTTCCGGAGTCACCTAGTGCAG” was run?
Answer: 8910 fluorescence intensity (a.u.)

Question: For “ATCGAATCGATCGACTCTCTCGTCAGTTGTCACGTCACCGCGGAGTCACCTAGTGCAG”, which binding signal is on record?
Answer: 8820 fluorescence intensity (a.u.)

Question: How did the binding signal turn out when “CTATACCAACTCTATTATTTTTGGTTACTCTACTTTAATACGGAGTCACCTAGTGCAG” was run?
Answer: 9060 fluorescence intensity (a.u.)

Question: For “TTCTTAGTTCTTCTCTGTTCTTTGATCTTGCCAAAGTTCTCGGAGTCACCTAGTGCAG”, which binding signal is on record?
Answer: 8820 fluorescence intensity (a.u.)

Question: How did the binding signal turn out when “AATTTGTTCAGTTGCCACGGATCCATCATTAATCTGGCAACGGAGTCACCTAGTGCAG” was run?
Answer: 8860 fluorescence intensity (a.u.)

Question: With “TTTATATTGGTAACATATTATTTGGCCCATATGGAAAACACGGAGTCACCTAGTGCAG” as the sequence, how does the binding signal read?
Answer: 8530 fluorescence intensity (a.u.)

Question: How did the binding signal turn out when “GACACATGAACTTTCAATTTTTCTATCACATCGTTCTAATCGGAGTCACCTAGTGCAG” was run?
Answer: 8150 fluorescence intensity (a.u.)

Question: Which binding signal does the source give for “TGGTGTGTATATATATCTGTTGCGTAATCGTAAAAAAACACGGAGTCACCTAGTGCAG” here?
Answer: 8620 fluorescence intensity (a.u.)

Question: How did the binding signal turn out when “GTGGTTTCGTTGGTGTTGTGCAGTTGCTGTGGGGATAATGCGGAGTCACCTAGTGCAG” was run?
Answer: 11600 fluorescence intensity (a.u.)

Question: For “CATAATCAAGCCTCGTAGGGCTCCATACTGCACCGTTTTTCGGAGTCACCTAGTGCAG”, which binding signal is on record?
Answer: 8500 fluorescence intensity (a.u.)

Question: Which binding signal does the source give for “TATGTTGTCTTTGTTTGCTCCTTCCTTGCGACCTGGTTGACGGAGTCACCTAGTGCAG” here?
Answer: 10500 fluorescence intensity (a.u.)

Question: For “TTCCTTCTTTCCTGCTGCCTGCCTAGTCTAGTCTACCACCCGGAGTCACCTAGTGCAG”, which binding signal is on record?
Answer: 8280 fluorescence intensity (a.u.)

Question: “CCGCCCTCACGGCCTCACCGCCTCATCTCCGCCGTCGATTCGGAGTCACCTAGTGCAG” was tested. Which binding signal did it give?
Answer: 9290 fluorescence intensity (a.u.)

Question: For “GTCAACTGTCAGCCTGCGTTACCAATAGCACATAATATATCGGAGTCACCTAGTGCAG”, which binding signal is on record?
Answer: 8110 fluorescence intensity (a.u.)

Question: Which binding signal does the source give for “CTCATCAAACTCACCACCGTCGCTTCCATCTCTCTCTGTCCGGAGTCACCTAGTGCAG” here?
Answer: 11600 fluorescence intensity (a.u.)

Question: Which binding signal does the source give for “ACTAATTTCATTGGAATTTTCTTTTAGGGATTTTTCCTTCCGGAGTCACCTAGTGCAG” here?
Answer: 8390 fluorescence intensity (a.u.)

Question: For “AATTGCTGTTGACCTGTTGTTGTGCTCCAACATCCAAACACGGAGTCACCTAGTGCAG”, which binding signal is on record?
Answer: 8290 fluorescence intensity (a.u.)

Question: For “TCGTGGTGGTGGTGGTGGTGCAGCTTTTGCTTGCGTGCGACGGAGTCACCTAGTGCAG”, which binding signal is on record?
Answer: 15300 fluorescence intensity (a.u.)

Question: Which binding signal does the source give for “TTTCTTCTCTTTTCTCCTGTTCACTTTTCTTCTTCTCCTCCGGAGTCACCTAGTGCAG” here?
Answer: 8250 fluorescence intensity (a.u.)

Question: With “TTGCAATTTGCATCACCCATGGTGCGCTTCCACTTATATCCGGAGTCACCTAGTGCAG” as the sequence, how does the binding signal read?
Answer: 8680 fluorescence intensity (a.u.)

Question: With “GGTGGTTCTTGCTTCACACAATCTGGCGCGCTTCAGAACACGGAGTCACCTAGTGCAG” as the sequence, how does the binding signal read?
Answer: 13300 fluorescence intensity (a.u.)

Question: Which binding signal does the source give for “TCTCTCATCTCATCTCTTGGTAGTTGCCAGTTGGGACTTGCGGAGTCACCTAGTGCAG” here?
Answer: 12200 fluorescence intensity (a.u.)

Question: With “TTAGTTCAGGCCGTGTTTAGTTCGTTGCCTAATTTTTTTTCGGAGTCACCTAGTGCAG” as the sequence, how does the binding signal read?
Answer: 14200 fluorescence intensity (a.u.)

Question: How did the binding signal turn out when “TAATTGTCTTCGTCAGGATCTTCTGCTAATTGTTTGATTTCGGAGTCACCTAGTGCAG” was run?
Answer: 8680 fluorescence intensity (a.u.)

Question: How did the binding signal turn out when “GTACACCGGAAATATTTCTTTTTTGCGTTCGATTCTTCTGCGGAGTCACCTAGTGCAG” was run?
Answer: 12100 fluorescence intensity (a.u.)

Question: For “TTGAGTCATATTTTTGTCACGGAACTACTTTTACGTCACACGGAGTCACCTAGTGCAG”, which binding signal is on record?
Answer: 8140 fluorescence intensity (a.u.)

Question: “GCCGCCCGTTCTCCGCCTCCGCCTCCGCCGGGGATAACGGCGGAGTCACCTAGTGCAG” was tested. Which binding signal did it give?
Answer: 8220 fluorescence intensity (a.u.)
